The list shows a part of the results.
Columns and labels:
Assay in all cases: log2 fold change, soluble protein after heating vs DMSO (PISA); higher = thermal stabilisation; K562 cells, 10 uM, 30 min; active = over 0.2 and 3.5 SD of the protein, either way, in both replicates (recomputed)
[1] = compound: COC1=CC=C(C=C1)CN2C=CC3=C2C=C(C=C3)C(=O)NO
Outline: (§1)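 K562 cells at 2×10^6 cells/mL were exposed to 10 μM compound for 30 min, then aliquots were heated for 3 min across 48°C-58°C, pooled, and extracted in PBS containing 0.5% NP-40 at 4°C. The supernatant after 21,000xg for 90 min was taken as soluble protein and measured by TMTpro 16plex LC-MS/MS with channel sums equalised. Thermal stability is reported relative to control samples, with values from duplicates. Fold changes are given on a log2 scale.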

Chains of the proteins cited; added tags and fusions are not shown. Lines headed by an entry give the natural chain unless they say otherwise; changes in a name come on top.
UniProt Q9NY65, whole entry, looked up: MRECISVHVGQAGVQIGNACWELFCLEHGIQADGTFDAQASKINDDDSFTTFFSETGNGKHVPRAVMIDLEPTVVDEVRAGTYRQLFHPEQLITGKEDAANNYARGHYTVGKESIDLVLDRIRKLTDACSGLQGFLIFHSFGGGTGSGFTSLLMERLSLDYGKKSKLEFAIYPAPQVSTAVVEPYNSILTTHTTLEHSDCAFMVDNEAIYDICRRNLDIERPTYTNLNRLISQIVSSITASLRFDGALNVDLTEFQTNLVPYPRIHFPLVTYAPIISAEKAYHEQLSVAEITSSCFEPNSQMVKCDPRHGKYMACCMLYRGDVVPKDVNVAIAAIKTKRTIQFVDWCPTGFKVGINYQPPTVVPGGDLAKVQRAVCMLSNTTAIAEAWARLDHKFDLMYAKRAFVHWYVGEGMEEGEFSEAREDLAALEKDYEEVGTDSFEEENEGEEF
UniProt Q9GZZ9, whole entry, looked up: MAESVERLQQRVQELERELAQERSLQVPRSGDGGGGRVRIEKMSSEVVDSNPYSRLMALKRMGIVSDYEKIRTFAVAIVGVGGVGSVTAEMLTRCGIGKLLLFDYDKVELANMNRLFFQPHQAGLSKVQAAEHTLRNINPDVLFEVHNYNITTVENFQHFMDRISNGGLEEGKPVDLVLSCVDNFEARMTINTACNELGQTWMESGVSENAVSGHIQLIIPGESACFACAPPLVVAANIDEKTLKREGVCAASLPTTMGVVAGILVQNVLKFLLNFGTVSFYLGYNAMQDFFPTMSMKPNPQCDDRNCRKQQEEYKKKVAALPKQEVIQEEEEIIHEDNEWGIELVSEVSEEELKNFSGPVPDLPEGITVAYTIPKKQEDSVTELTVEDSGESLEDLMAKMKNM
UniProt Q15631: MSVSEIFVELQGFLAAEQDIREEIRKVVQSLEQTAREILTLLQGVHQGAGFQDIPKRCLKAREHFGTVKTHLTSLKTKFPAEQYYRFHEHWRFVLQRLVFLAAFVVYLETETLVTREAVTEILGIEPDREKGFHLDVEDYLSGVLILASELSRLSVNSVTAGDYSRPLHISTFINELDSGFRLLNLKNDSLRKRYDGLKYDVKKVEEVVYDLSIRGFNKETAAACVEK
UniProt Q16762: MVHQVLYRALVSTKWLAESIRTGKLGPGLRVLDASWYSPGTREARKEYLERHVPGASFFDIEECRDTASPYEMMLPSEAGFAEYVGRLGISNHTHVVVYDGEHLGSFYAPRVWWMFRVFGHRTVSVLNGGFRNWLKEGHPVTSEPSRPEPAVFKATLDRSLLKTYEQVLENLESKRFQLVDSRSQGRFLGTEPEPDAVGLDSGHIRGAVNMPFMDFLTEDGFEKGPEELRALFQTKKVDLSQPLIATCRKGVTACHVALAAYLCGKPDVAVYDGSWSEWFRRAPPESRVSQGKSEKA
UniProt P62253: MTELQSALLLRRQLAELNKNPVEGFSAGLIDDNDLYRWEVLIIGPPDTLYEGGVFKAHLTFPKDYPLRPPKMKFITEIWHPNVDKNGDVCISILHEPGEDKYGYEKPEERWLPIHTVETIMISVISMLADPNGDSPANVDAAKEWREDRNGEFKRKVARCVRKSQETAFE
UniProt Q99757: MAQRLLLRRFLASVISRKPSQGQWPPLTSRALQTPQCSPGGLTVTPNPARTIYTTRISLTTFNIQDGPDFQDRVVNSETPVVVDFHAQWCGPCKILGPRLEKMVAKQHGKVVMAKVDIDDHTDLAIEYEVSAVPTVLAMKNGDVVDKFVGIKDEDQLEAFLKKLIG
UniProt O95881: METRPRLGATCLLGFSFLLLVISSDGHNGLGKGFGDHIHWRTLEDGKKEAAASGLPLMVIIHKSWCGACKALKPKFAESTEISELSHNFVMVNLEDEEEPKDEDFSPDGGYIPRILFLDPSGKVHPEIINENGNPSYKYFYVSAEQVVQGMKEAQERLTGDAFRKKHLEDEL
UniProt Q16881, whole entry, looked up: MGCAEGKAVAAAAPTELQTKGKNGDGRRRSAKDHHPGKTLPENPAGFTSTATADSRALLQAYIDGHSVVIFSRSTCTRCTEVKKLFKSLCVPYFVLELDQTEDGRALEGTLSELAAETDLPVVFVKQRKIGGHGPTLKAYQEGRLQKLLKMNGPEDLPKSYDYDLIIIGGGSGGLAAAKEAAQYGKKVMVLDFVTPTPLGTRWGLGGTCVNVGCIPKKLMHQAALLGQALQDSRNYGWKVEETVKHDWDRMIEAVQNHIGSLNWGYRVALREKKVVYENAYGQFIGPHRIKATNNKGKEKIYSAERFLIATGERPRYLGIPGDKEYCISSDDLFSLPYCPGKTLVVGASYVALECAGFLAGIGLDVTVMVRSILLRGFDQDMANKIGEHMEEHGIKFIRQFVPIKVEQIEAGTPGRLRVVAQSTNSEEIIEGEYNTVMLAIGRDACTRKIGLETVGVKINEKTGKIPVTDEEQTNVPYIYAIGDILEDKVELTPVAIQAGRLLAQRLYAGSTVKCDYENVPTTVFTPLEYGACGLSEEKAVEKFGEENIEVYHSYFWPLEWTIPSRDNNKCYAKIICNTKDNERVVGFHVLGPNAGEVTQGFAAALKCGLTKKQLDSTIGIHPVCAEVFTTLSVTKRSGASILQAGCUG
UniProt Q712K3: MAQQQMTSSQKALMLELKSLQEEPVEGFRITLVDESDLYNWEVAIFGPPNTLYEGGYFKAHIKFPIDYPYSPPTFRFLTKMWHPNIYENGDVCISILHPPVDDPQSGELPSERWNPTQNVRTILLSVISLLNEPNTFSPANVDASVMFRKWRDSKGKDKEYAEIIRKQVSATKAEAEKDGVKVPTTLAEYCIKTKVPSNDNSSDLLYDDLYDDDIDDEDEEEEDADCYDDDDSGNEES
UniProt Q9NNW7, whole entry, looked up: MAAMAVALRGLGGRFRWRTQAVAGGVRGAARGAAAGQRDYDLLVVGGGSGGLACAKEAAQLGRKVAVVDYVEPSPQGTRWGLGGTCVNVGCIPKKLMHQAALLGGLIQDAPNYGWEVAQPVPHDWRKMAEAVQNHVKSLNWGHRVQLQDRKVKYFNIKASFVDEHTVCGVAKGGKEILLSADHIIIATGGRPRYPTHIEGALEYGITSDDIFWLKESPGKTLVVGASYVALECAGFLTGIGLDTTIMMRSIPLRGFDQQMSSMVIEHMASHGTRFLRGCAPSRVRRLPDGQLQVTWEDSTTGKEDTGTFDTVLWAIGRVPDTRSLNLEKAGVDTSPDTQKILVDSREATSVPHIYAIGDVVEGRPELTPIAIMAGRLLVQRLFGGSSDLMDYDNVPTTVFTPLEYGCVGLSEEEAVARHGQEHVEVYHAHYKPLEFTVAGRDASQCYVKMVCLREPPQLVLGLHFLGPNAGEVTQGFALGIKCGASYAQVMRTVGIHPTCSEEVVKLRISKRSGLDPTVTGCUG
UniProt P61088: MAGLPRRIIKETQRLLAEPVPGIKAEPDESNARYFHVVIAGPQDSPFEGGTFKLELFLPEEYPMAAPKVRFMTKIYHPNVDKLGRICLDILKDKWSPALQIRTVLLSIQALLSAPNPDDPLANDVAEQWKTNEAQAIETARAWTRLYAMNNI
UniProt P61081: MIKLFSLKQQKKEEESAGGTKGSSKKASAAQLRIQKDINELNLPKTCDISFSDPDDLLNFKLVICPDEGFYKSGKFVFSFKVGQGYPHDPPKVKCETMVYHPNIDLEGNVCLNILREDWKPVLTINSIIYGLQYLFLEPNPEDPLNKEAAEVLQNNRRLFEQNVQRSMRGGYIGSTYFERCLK
UniProt P07437, whole entry, looked up: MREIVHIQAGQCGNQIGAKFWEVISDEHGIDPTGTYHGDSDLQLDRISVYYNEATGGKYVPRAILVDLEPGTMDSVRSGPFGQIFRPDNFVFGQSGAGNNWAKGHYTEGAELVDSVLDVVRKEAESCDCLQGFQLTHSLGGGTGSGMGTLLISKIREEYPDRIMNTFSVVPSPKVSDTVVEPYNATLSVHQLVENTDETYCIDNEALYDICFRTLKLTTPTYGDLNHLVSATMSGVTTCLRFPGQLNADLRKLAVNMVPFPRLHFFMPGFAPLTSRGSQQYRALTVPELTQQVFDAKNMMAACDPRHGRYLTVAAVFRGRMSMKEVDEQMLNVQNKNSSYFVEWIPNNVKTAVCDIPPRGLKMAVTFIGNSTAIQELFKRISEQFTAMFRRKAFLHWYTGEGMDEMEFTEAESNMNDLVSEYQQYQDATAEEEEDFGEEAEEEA
UniProt P04818: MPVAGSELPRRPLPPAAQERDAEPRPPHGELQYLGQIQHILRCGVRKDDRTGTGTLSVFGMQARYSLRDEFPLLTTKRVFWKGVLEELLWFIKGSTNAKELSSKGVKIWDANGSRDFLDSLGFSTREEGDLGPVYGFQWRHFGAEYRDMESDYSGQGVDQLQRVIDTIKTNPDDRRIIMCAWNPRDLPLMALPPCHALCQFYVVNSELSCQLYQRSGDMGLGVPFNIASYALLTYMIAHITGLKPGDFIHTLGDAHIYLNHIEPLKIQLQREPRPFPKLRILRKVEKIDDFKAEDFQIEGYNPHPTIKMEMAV
UniProt P60604: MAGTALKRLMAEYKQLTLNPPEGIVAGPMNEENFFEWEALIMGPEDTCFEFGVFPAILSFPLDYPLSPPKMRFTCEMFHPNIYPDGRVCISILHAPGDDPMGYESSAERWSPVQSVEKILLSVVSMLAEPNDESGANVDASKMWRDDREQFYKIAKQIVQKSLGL
UniProt O14530: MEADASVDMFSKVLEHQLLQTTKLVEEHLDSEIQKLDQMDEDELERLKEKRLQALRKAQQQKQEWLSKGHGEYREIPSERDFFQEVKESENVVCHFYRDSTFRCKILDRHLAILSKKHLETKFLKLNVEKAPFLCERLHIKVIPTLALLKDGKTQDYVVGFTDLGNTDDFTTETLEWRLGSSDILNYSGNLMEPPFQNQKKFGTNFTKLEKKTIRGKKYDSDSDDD
UniProt Q14166: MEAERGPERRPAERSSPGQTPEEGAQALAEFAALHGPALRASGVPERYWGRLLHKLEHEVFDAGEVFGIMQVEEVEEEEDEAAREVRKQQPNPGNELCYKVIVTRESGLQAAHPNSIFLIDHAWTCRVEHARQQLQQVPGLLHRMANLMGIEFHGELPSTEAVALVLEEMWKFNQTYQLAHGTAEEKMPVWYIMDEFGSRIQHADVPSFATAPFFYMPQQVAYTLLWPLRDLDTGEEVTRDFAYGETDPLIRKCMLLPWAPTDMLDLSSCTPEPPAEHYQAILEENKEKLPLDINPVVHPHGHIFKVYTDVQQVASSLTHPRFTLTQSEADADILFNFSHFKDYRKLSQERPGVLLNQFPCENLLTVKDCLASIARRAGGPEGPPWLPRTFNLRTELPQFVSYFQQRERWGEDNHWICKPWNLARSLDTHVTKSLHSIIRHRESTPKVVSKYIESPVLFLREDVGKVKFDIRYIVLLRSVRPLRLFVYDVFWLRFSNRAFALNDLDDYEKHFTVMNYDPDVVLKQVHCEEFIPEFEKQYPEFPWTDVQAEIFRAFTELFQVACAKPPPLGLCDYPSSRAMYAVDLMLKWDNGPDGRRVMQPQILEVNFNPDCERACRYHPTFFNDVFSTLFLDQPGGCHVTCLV
UniProt Q8TBC4: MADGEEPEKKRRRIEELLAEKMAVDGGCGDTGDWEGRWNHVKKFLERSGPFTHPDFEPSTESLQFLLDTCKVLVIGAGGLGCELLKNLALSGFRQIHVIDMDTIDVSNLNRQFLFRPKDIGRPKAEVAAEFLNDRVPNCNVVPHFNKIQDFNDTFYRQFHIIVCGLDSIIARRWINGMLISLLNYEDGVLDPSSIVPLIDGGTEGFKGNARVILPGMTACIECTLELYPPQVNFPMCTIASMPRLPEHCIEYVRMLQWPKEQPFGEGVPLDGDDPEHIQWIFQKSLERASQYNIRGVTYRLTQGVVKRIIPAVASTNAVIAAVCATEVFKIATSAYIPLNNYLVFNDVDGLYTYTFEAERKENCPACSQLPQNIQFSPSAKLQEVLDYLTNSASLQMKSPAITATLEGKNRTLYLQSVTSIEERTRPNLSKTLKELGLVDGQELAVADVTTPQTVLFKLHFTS
UniProt P26368, whole entry, looked up: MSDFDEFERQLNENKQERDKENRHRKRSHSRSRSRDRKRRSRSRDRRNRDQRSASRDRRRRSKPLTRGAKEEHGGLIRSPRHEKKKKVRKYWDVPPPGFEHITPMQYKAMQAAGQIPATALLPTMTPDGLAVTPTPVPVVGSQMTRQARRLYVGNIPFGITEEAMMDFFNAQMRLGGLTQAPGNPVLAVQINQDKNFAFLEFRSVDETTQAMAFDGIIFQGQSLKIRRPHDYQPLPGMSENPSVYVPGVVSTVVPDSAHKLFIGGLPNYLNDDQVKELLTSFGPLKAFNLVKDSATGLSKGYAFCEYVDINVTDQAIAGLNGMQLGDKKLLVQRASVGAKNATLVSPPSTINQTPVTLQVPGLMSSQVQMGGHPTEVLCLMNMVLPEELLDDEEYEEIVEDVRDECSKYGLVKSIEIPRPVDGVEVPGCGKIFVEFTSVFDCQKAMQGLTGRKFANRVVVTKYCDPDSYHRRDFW
UniProt P49459, whole entry, looked up: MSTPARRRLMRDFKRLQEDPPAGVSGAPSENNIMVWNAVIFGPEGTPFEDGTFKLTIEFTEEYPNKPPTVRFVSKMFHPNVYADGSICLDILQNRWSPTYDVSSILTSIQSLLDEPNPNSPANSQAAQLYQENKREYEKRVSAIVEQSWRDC

filanesib = compound: CON(C)C(=O)N1N=C(c2cc(F)ccc2F)S[C@@]1(CCCN)c1ccccc1 [filanesib]
Outline: as §1

zotarolimus = compound: CO[C@H]1C[C@@H]2CC[C@@H](C)[C@@](O)(O2)C(=O)C(=O)N2CCCC[C@H]2C(=O)O[C@H]([C@H](C)C[C@@H]2CC[C@H](n3cnnn3)[C@H](OC)C2)CC(=O)[C@H](C)/C=C(\C)[C@@H](O)[C@@H](OC)C(=O)[C@H](C)C[C@H](C)/C=C/C=C/C=C/1C [zotarolimus]
Outline: as §1

idasanutlin = compound: COc1cc(C(=O)O)ccc1NC(=O)[C@@H]1N[C@@H](CC(C)(C)C)[C@](C#N)(c2ccc(Cl)cc2F)[C@H]1c1cccc(Cl)c1F [idasanutlin]
Outline: as §1

alisertib = compound: COc1cc(Nc2ncc3c(n2)-c2ccc(Cl)cc2C(c2c(F)cccc2OC)=NC3)ccc1C(=O)O [alisertib]
Outline: as §1

[2] = compound: COc1cc2nc(-c3cc(F)ccc3O)nc(N[C@@H]3CNC[C@H]3C(C)(C)O)c2cc1OC
Outline: as §1

gefitinib = compound: COc1cc2ncnc(Nc3ccc(F)c(Cl)c3)c2cc1OCCCN1CCOCC1 [gefitinib]
Outline: as §1

[3] = compound: COc1cccc2cc(-c3nc([C@H]4CC[C@H](C(=O)O)CC4)n4ncnc(N)c34)[nH]c12
Outline: as §1

lapatinib = compound: CS(=O)(=O)CCNCc1ccc(-c2ccc3ncnc(Nc4ccc(OCc5cccc(F)c5)c(Cl)c4)c3c2)o1 [lapatinib]
Outline: as §1

pictilisib = compound: CS(=O)(=O)N1CCN(Cc2cc3nc(-c4cccc5[nH]ncc45)nc(N4CCOCC4)c3s2)CC1 [pictilisib]
Outline: as §1

Measured: log2 fold change

TSFM (UniProt P43897)
inactive: [1] 0.152 | filanesib -0.146 | zotarolimus 0.042 | idasanutlin 0.039 | alisertib 0.047 | [2] 0.12 | gefitinib 0.117 | [3] -0.002 | lapatinib -0.006 | pictilisib 0.066

TUBA8 (UniProt Q9NY65)
inactive: [1] -0.209 | filanesib 0.612 | zotarolimus -0.076 | idasanutlin 0.076 | alisertib -0.213 | [2] 0.019 | gefitinib -0.071 | [3] 0.008 | lapatinib 0.04 | pictilisib -0.03

TSPO (UniProt P30536)
inactive: [1] -0.089 | filanesib -0.009 | zotarolimus -0.002 | idasanutlin 0.014 | alisertib 0.028 | [2] 0.019 | gefitinib -0.01 | [3] 0.045 | lapatinib -0.059 | pictilisib 0.009

UBA5 (UniProt Q9GZZ9)
inactive: [1] 0.065 | filanesib -0.113 | zotarolimus -0.045 | idasanutlin -0.022 | alisertib -0.057 | [2] -0.07 | gefitinib -0.016 | [3] 0.031 | lapatinib 0.013 | pictilisib 0.056

TTI1 (UniProt O43156)
inactive: [1] -0.031 | filanesib 0.081 | zotarolimus 0.091 | idasanutlin -0.097 | alisertib -0.112 | [2] 0.02 | gefitinib -0.057 | [3] -0.019 | lapatinib -0.008 | pictilisib 0.049

TSN (UniProt Q15631)
inactive: [1] 0.007 | filanesib -0.07 | zotarolimus -0.023 | idasanutlin -0.048 | alisertib -0.138 | [2] 0.06 | gefitinib 0.006 | [3] 0.009 | lapatinib -0.033 | pictilisib 0.058

TST (UniProt Q16762)
inactive: [1] 0.119 | filanesib -0.037 | zotarolimus -0.163 | idasanutlin -0.032 | alisertib 0.225 | [2] 0.149 | gefitinib 0.052 | [3] -0.056 | lapatinib -0.021

UBE2G1 (UniProt P62253)
inactive: [1] -0.014 | filanesib -0.07 | zotarolimus 0.04 | idasanutlin -0.04 | alisertib -0.004 | [2] 0.001 | gefitinib -0.026 | [3] 0.009 | lapatinib -0.069 | pictilisib 0.019

TTC17 (UniProt Q96AE7)
inactive: [1] -0.019 | filanesib 0.056 | zotarolimus -0.006 | idasanutlin 0.015 | alisertib -0.012 | [2] -0.111 | gefitinib -0.019 | [3] 0.06 | lapatinib 0.04 | pictilisib -0.093

TXN2 (UniProt Q99757)
inactive: [1] 0.039 | filanesib 0.015 | zotarolimus 0.211 | idasanutlin 0.108 | alisertib -0.19 | [2] -0.015 | gefitinib 0.042 | [3] -0.023 | lapatinib -0.078 | pictilisib -0.186

TXNDC12 (UniProt O95881)
inactive: [1] -0.146 | filanesib 0.069 | zotarolimus 0.028 | idasanutlin -0.016 | alisertib -0.088 | [2] 0.049 | gefitinib -0.001 | [3] -0.001 | lapatinib -0.073 | pictilisib 0.01

2 records picked at random from the list so far, as already listed:
TUBA8 (UniProt Q9NY65)
inactive: [1] -0.209 | filanesib 0.612 | zotarolimus -0.076 | idasanutlin 0.076 | alisertib -0.213 | [2] 0.019 | gefitinib -0.071 | [3] 0.008 | lapatinib 0.04 | pictilisib -0.03

TST (UniProt Q16762)
inactive: [1] 0.119 | filanesib -0.037 | zotarolimus -0.163 | idasanutlin -0.032 | alisertib 0.225 | [2] 0.149 | gefitinib 0.052 | [3] -0.056 | lapatinib -0.021

Additional records follow.

TXNRD1 (UniProt Q16881)
inactive: [1] 0.018 | filanesib -0.101 | zotarolimus 0.006 | idasanutlin -0.144 | alisertib -0.012 | [2] -0.023 | gefitinib 0.026 | [3] 0.052 | lapatinib -0.055 | pictilisib 0.062

UBE2R2 (UniProt Q712K3)
inactive: [1] 0.116 | filanesib -0.038 | zotarolimus -0.004 | idasanutlin -0.041 | alisertib -0.041 | [2] -0.007 | gefitinib 0.002 | [3] 0.046 | lapatinib -0.023 | pictilisib 0.035

TXNRD2 (UniProt Q9NNW7)
inactive: [1] 0.028 | filanesib -0.019 | zotarolimus 0.025 | idasanutlin -0.012 | alisertib 0.037 | [2] -0.009 | gefitinib 0.012 | [3] 0.032 | lapatinib -0.03 | pictilisib 0.011

UBAC2 (UniProt Q8NBM4)
inactive: [1] 0.063 | filanesib -0.054 | zotarolimus 0.077 | idasanutlin -0.108 | alisertib 0.108 | [2] -0.075 | gefitinib 0.024 | [3] -0.01 | lapatinib 0.125 | pictilisib 0.004

UBC (UniProt P0CG48)
inactive: [1] -0.064 | filanesib 0.09 | zotarolimus 0.048 | idasanutlin 0 | alisertib -0.002 | [2] 0.06 | gefitinib 0.038 | [3] 0.018 | lapatinib -0.101 | pictilisib 0.008

UBE2N (UniProt P61088)
inactive: [1] 0.102 | filanesib -0.064 | zotarolimus 0.114 | idasanutlin 0.045 | alisertib 0.046 | [2] 0.013 | gefitinib -0.002 | [3] -0.046 | lapatinib -0.037 | pictilisib 0.048

UBE2M (UniProt P61081)
inactive: [1] -0.014 | filanesib -0.076 | zotarolimus 0.008 | idasanutlin -0.091 | alisertib -0.017 | [2] 0.07 | gefitinib 0.015 | [3] 0.027 | lapatinib -0.012 | pictilisib 0.095

TUBB (UniProt P07437)
inactive: [1] 0.041 | filanesib -0.101 | zotarolimus 0.009 | idasanutlin -0.04 | alisertib -0.02 | [2] 0.024 | gefitinib -0.03 | [3] 0.091 | lapatinib -0.046 | pictilisib 0.011

TYMS (UniProt P04818)
inactive: [1] 0.051 | filanesib 0.032 | zotarolimus 0.079 | idasanutlin -0.024 | alisertib -0.078 | [2] 0.059 | gefitinib 0.052 | [3] -0.04 | lapatinib -0.038 | pictilisib -0.088

UBE2G2 (UniProt P60604)
inactive: [1] -0.028 | filanesib -0.134 | zotarolimus 0 | idasanutlin -0.176 | alisertib -0.026 | [2] -0.227 | gefitinib 0.098 | [3] 0.048 | lapatinib -0.002 | pictilisib -0.301

TXNDC9 (UniProt O14530)
inactive: [1] -0.015 | filanesib -0.045 | zotarolimus 0.044 | idasanutlin -0.018 | alisertib 0.059 | [2] -0.03 | gefitinib -0.015 | [3] 0 | lapatinib 0.027 | pictilisib 0.044

TTLL12 (UniProt Q14166)
inactive: [1] 0.018 | filanesib 0.321 | zotarolimus -0.013 | idasanutlin 0.274 | alisertib -0.083 | [2] 0.125 | gefitinib -0.148 | [3] -0.511 | lapatinib 0.002 | pictilisib -0.195

UBA3 (UniProt Q8TBC4)
inactive: [1] 0.075 | filanesib -0.143 | zotarolimus 0.063 | idasanutlin -0.047 | alisertib -0.013 | [2] 0.027 | gefitinib -0.028 | [3] 0.054 | lapatinib -0.003 | pictilisib 0.028

UBA6
inactive: [1] 0.021 | filanesib -0.01 | zotarolimus 0.051 | idasanutlin -0.016 | alisertib -0.04 | [2] -0.031 | gefitinib 0.029 | [3] -0.069 | lapatinib 0.022 | pictilisib 0.004

TSNAX (UniProt Q99598)
inactive: [1] 0.007 | filanesib -0.039 | zotarolimus 0.009 | idasanutlin 0.009 | alisertib -0.036 | [2] 0.01 | gefitinib -0.022 | [3] 0.043 | lapatinib 0.004 | pictilisib 0.007

U2AF2 (UniProt P26368)
inactive: [1] 0.038 | filanesib 0.071 | zotarolimus 0.018 | idasanutlin 0.042 | alisertib -0.089 | [2] 0.014 | gefitinib 0.028 | [3] 0.074 | lapatinib -0.013 | pictilisib 0.013

UBE2A (UniProt P49459)
inactive: [1] 0 | filanesib -0.037 | zotarolimus 0.045 | idasanutlin -0.065 | alisertib -0.074 | [2] 0.054 | gefitinib 0.041 | [3] -0.026 | lapatinib 0.001 | pictilisib 0.086

TWF2 (UniProt Q6IBS0)
inactive: [1] 0.015 | filanesib -0.094 | zotarolimus 0.043 | idasanutlin -0.031 | alisertib -0.042 | [2] -0.003 | gefitinib 0.018 | [3] 0.047 | lapatinib 0.078 | pictilisib 0.11

UBE3A (UniProt Q05086)
inactive: [1] 0.021 | filanesib -0.037 | zotarolimus 0.017 | idasanutlin -0.084 | alisertib -0.038 | [2] -0.012 | gefitinib 0 | [3] 0.05 | lapatinib 0.027 | pictilisib 0.011
